Measurements: PubChem BioAssay AID504834 (National Center for Advancing Translational Sciences (NCATS), 2011)
The campaign covered roughly 320,000 compounds. About 22,000 (6.9%) were called active. The shares of active, inactive and inconclusive entries below differ from those in the screen. Calls follow the shape of the dose curve; as a rule, active = well fitted inhibition curve with a large enough effect; inconclusive = small, poorly fitted or top-dose-only effect, or another doubt; inactive = no such curve, though single readings can be large or run the other way. Potencies beside an inconclusive call are fits to weak or partial responses and may not hold up.

Test: Primary qHTS for delayed death inhibitors of the malarial parasite plastid, 96 hour incubation
Conditions: P. falciparum luciferase reporter growth; series mostly up to 28.7 µM
In short: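 Infected RBCs, 2% Hct / 0.05% parasitemia final; luciferase-reporter P. falciparum; cpd 96 h, 37 C, 5% CO2; luciferase detection reagent; luminescence.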
Potency is read from the fitted curve at half-maximal effect.

**Q.** With `COc1ccc(NC(=O)c2sc3nc(-c4cccnc4)ccc3c2N)cc1OC` as the molecule, how does the Potency read?
**A.** inconclusive: 3.29 µM [inhibitor, partial curve]

**Q.** With `Cc1nn(CC(=O)N2CCCc3ccccc32)c(C)c1[N+](=O)[O-]` as the molecule, how does the Potency read?
**A.** inconclusive: 0.928 µM [inhibitor, full curve, poor fit]

**Q.** Which Potency does the source give for `Cc1cccc(NC(=O)c2ccccc2NC(=O)CCC(=O)O)c1` here?
**A.** inactive

**Q.** With `CCn1nc(C(=O)Nc2nc(-c3ccccn3)cs2)c2ccccc2c1=O` as the molecule, how does the Potency read?
**A.** active: 2.62 µM

**Q.** With `COC(=O)C1=C(C)N(c2ccc(Cl)c(Cl)c2)C(=O)C1` as the molecule, how does the Potency read?
**A.** inconclusive: 0.262 µM [inhibitor, partial curve, poor fit]

**Q.** Which Potency does the source give for `Cc1cc(C)c2c(CN3CC(C)OC(C)C3)cc(=O)oc2c1C` (stereo not given) here?
**A.** inconclusive: 1.47 µM [inhibitor, full curve, poor fit]

**Q.** Which Potency does the source give for `O=C1C=C(Nc2ccc(Cl)cc2)CC(c2ccco2)C1` (stereo not given) here?
**A.** inconclusive: 18.5 µM [inhibitor, single point]

**Q.** With `CC1(C)CC(=O)C=C(c2ccc(OC(F)(F)F)cc2)C1` as the molecule, how does the Potency read?
**A.** inconclusive: 18.5 µM [inhibitor, single point]

**Q.** Which Potency does the source give for `CS(=O)(=O)c1ccc2nc(NC(=O)c3ccc(Cl)cc3)sc2c1` here?
**A.** inconclusive: 18.5 µM [inhibitor, single point]

**Q.** Which Potency does the source give for `Cc1ccc(C)c(NC(=S)NNC(=O)c2csc(C)c2)c1` here?
**A.** inconclusive: 18.5 µM [inhibitor, single point]

**Q.** With `COc1ccc(-c2noc(N3CCC(C(=O)NCc4ccccc4Cl)CC3)n2)cc1` as the molecule, how does the Potency read?
**A.** inconclusive: 4.65 µM [inhibitor, partial curve, poor fit]

**Q.** Which Potency does the source give for `NC(N)=Nc1nc(CCN2C(=O)c3ccccc3C2=O)cs1` here?
**A.** inactive

**Q.** Which Potency does the source give for `Cc1cccc(-n2c(C)nc3ccc(Cl)cc3c2=O)c1` here?
**A.** inconclusive: 18.5 µM [inhibitor, single point]

**Q.** With `O=S(=O)(c1ccccc1)c1nc(-c2ccccc2)oc1N1CCCC1` as the molecule, how does the Potency read?
**A.** inactive

**Q.** For `c1ccc(C2=NNC(=NC3CC3)SC2)cc1`, which Potency is on record?
**A.** inactive

**Q.** For `Cc1cccc(N=C2NC(=O)/C(=C3/C(=O)N(C)c4ccccc43)S2)c1C`, which Potency is on record?
**A.** inactive

**Q.** For `COc1ccc2[nH]c(C(=O)Nc3ccc(F)cc3Br)cc2c1`, which Potency is on record?
**A.** inactive

**Q.** With `CC(C)(C)NC(=O)CN(C(=O)CS(=O)CC(=O)Nc1ccc(F)cc1)c1ccccc1F` (stereo not given) as the molecule, how does the Potency read?
**A.** inconclusive: 13.1 µM [inhibitor, partial curve, poor fit]

**Q.** For `COc1cc(C(=O)NCc2ccc3[nH]c(C)cc3c2)cc(OC)c1OC`, which Potency is on record?
**A.** inconclusive: 18.5 µM [inhibitor, single point]

**Q.** For `N#C/C(=C\c1ccc(-c2ccc(Br)cc2)o1)C(=O)NCCc1c[nH]c2ccccc12`, which Potency is on record?
**A.** inactive
